# Reference: the supplement of paper PMC10689618
# Counter-ions that a name gives are not always drawn. This is one part of the list. Repeats are few or missing, and single values can be far off.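 Primary human fetal astrocytes engulfed labelled rat cortical synaptosomes, measured as a red/green ratio corrected for calcein live-cell signal and scaled to the plate median. Toxicity meant calcein falling over 30%; decreased phagocytosis meant below 70% of median above 5 µM.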
# Legend:
# [1] = system: Human fetal astrocytes; experiment: loss of total cells relative to no-compound high-control median (toxicity); higher = more toxic (fewer cells); conditions: 24 h
# [2] = system: Human fetal astrocytes; experiment: synaptosome phagocytosis (pHrodo/calcein intensity ratio) relative to plate median of data wells; higher = more phagocytosis; conditions: 24 h
smiles,measurement,setting,value
C=CC[C@H](N)C(=O)O [L-allylglycine],loss of total cells,[1]; 1.39 µM,2.9%
same,loss of total cells,[1]; 2.78 µM,-3.9%
same,loss of total cells,[1]; 5.56 µM,-24.4%
same,loss of total cells,[1]; 11.11 µM,-7.6%
same,loss of total cells,[1]; 22.22 µM,7.9%
same,synaptosome phagocytosis,[2]; 1.39 µM,129%
same,synaptosome phagocytosis,[2]; 2.78 µM,110%
same,synaptosome phagocytosis,[2]; 5.56 µM,158%
same,synaptosome phagocytosis,[2]; 11.11 µM,127%
same,synaptosome phagocytosis,[2]; 22.22 µM,96.1%
NC(=NCCC[C@H](N)C(=O)O)NO [NG-Hydroxy-L-arginine acetate],loss of total cells,[1]; 1.39 µM,1.3%
same,loss of total cells,[1]; 2.78 µM,-6%
same,loss of total cells,[1]; 5.56 µM,-2.5%
same,loss of total cells,[1]; 11.11 µM,-6.7%
same,loss of total cells,[1]; 22.22 µM,-0.8%
same,synaptosome phagocytosis,[2]; 1.39 µM,114%
same,synaptosome phagocytosis,[2]; 2.78 µM,87.6%
same,synaptosome phagocytosis,[2]; 5.56 µM,120%
same,synaptosome phagocytosis,[2]; 11.11 µM,95.9%
same,synaptosome phagocytosis,[2]; 22.22 µM,120%
CC(CCc1ccccc1)NCC(O)c1ccc(O)c(C(N)=O)c1 (stereo not given) [Labetalol hydrochloride],loss of total cells,[1]; 1.39 µM,26.1%
same,loss of total cells,[1]; 2.78 µM,13.1%
same,loss of total cells,[1]; 5.56 µM,20.2%
same,loss of total cells,[1]; 11.11 µM,18.1%
same,loss of total cells,[1]; 22.22 µM,29.9%
same,synaptosome phagocytosis,[2]; 1.39 µM,51.5%
same,synaptosome phagocytosis,[2]; 2.78 µM,48.1%
same,synaptosome phagocytosis,[2]; 5.56 µM,71.2%
same,synaptosome phagocytosis,[2]; 11.11 µM,42.5%
same,synaptosome phagocytosis,[2]; 22.22 µM,44.9%
N[C@@H]1CONC1=O [D-Cycloserine],loss of total cells,[1]; 1.39 µM,5.9%
same,loss of total cells,[1]; 2.78 µM,-9.9%
same,loss of total cells,[1]; 5.56 µM,4.1%
same,loss of total cells,[1]; 11.11 µM,-6.7%
same,loss of total cells,[1]; 22.22 µM,13.2%
same,synaptosome phagocytosis,[2]; 1.39 µM,137%
same,synaptosome phagocytosis,[2]; 2.78 µM,89.1%
same,synaptosome phagocytosis,[2]; 5.56 µM,112%
same,synaptosome phagocytosis,[2]; 11.11 µM,97.3%
same,synaptosome phagocytosis,[2]; 22.22 µM,102%
O=C(O)CCCCC1CCSS1 (racemic) [(±)-alpha-Lipoic Acid],loss of total cells,[1]; 1.39 µM,-16.5%
same,loss of total cells,[1]; 2.78 µM,-9.9%
same,loss of total cells,[1]; 5.56 µM,4.5%
same,loss of total cells,[1]; 11.11 µM,-12.6%
same,loss of total cells,[1]; 22.22 µM,-18.9%
same,synaptosome phagocytosis,[2]; 1.39 µM,101%
same,synaptosome phagocytosis,[2]; 2.78 µM,85.3%
same,synaptosome phagocytosis,[2]; 5.56 µM,89.9%
same,synaptosome phagocytosis,[2]; 11.11 µM,103%
same,synaptosome phagocytosis,[2]; 22.22 µM,120%
CCCCCCCCCCCCCCCCCCOCC(COP(=O)([O-])OCC[N+](C)(C)C)OC (stereo not given),loss of total cells,[1]; 1.39 µM,-18%
same,loss of total cells,[1]; 2.78 µM,-16.2%
same,loss of total cells,[1]; 5.56 µM,0.8%
same,loss of total cells,[1]; 11.11 µM,-34.5%
same,loss of total cells,[1]; 22.22 µM,8.8%
same,synaptosome phagocytosis,[2]; 1.39 µM,87.7%
same,synaptosome phagocytosis,[2]; 2.78 µM,95.5%
same,synaptosome phagocytosis,[2]; 5.56 µM,101%
same,synaptosome phagocytosis,[2]; 11.11 µM,92%
same,synaptosome phagocytosis,[2]; 22.22 µM,115%
CC(C)[C@@H]1NC(=O)[C@H](CCCCN)NC(=O)[C@@H](Cc2c[nH]c3ccccc23)NC(=O)[C@H](Cc2ccc(O)cc2)NC(=O)[C@H](C)N(C)C(=O)[C@H](Cc2ccccc2)NC1=O [Seglitide],loss of total cells,[1]; 1.39 µM,-5.3%
same,loss of total cells,[1]; 2.78 µM,-27.2%
same,loss of total cells,[1]; 5.56 µM,-21.9%
same,loss of total cells,[1]; 11.11 µM,-10.3%
same,loss of total cells,[1]; 22.22 µM,-23%
same,synaptosome phagocytosis,[2]; 1.39 µM,130%
same,synaptosome phagocytosis,[2]; 2.78 µM,121%
same,synaptosome phagocytosis,[2]; 5.56 µM,97.4%
same,synaptosome phagocytosis,[2]; 11.11 µM,113%
same,synaptosome phagocytosis,[2]; 22.22 µM,142%
Fc1ccc(CN(C2=NCCN2)c2c(Cl)cccc2Cl)cc1 [IMID-4F hydrochloride],loss of total cells,[1]; 1.39 µM,-3.8%
same,loss of total cells,[1]; 2.78 µM,-30.8%
same,loss of total cells,[1]; 5.56 µM,-4.1%
same,loss of total cells,[1]; 11.11 µM,1.3%
same,loss of total cells,[1]; 22.22 µM,-6.4%
same,synaptosome phagocytosis,[2]; 1.39 µM,102%
same,synaptosome phagocytosis,[2]; 2.78 µM,96.4%
same,synaptosome phagocytosis,[2]; 5.56 µM,97%
same,synaptosome phagocytosis,[2]; 11.11 µM,82.2%
same,synaptosome phagocytosis,[2]; 22.22 µM,80.2%
CCCC(C(=O)OCCN(CC)CC)(c1ccccc1)c1ccccc1 [SKF-525A hydrochloride],loss of total cells,[1]; 1.39 µM,-13.7%
same,loss of total cells,[1]; 2.78 µM,2.3%
same,loss of total cells,[1]; 5.56 µM,12.7%
same,loss of total cells,[1]; 11.11 µM,24.8%
same,loss of total cells,[1]; 22.22 µM,15%
same,synaptosome phagocytosis,[2]; 1.39 µM,105%
same,synaptosome phagocytosis,[2]; 2.78 µM,87.7%
same,synaptosome phagocytosis,[2]; 5.56 µM,106%
same,synaptosome phagocytosis,[2]; 11.11 µM,80.9%
same,synaptosome phagocytosis,[2]; 22.22 µM,93.3%
Nc1ncnc2c1nc(Sc1ccc(Cl)cc1)n2C1OC2COP(=O)(O)O[C@@H]2[C@@H]1O (stereo not given in full) [8-(4-Chlorophenylthio)-cAMP sodium],loss of total cells,[1]; 1.39 µM,0.7%
same,loss of total cells,[1]; 2.78 µM,0.9%
same,loss of total cells,[1]; 5.56 µM,-10.6%
same,loss of total cells,[1]; 11.11 µM,-6.7%
same,loss of total cells,[1]; 22.22 µM,4.1%
same,synaptosome phagocytosis,[2]; 1.39 µM,102%
same,synaptosome phagocytosis,[2]; 2.78 µM,137%
same,synaptosome phagocytosis,[2]; 5.56 µM,117%
same,synaptosome phagocytosis,[2]; 11.11 µM,136%
same,synaptosome phagocytosis,[2]; 22.22 µM,115%

# A different layout for some results above.
smiles	measurement	setting	value
C=CC[C@H](N)C(=O)O [L-allylglycine]	synaptosome phagocytosis	[2]; 1.39 µM	129%
NC(=NCCC[C@H](N)C(=O)O)NO [NG-Hydroxy-L-arginine acetate]	loss of total cells	[1]; 5.56 µM	-2.5%
O=C(O)CCCCC1CCSS1 (racemic) [(±)-alpha-Lipoic Acid]	synaptosome phagocytosis	[2]; 2.78 µM	85.3%
CCCCCCCCCCCCCCCCCCOCC(COP(=O)([O-])OCC[N+](C)(C)C)OC (stereo not given)	synaptosome phagocytosis	[2]; 2.78 µM	95.5%
CC(C)[C@@H]1NC(=O)[C@H](CCCCN)NC(=O)[C@@H](Cc2c[nH]c3ccccc23)NC(=O)[C@H](Cc2ccc(O)cc2)NC(=O)[C@H](C)N(C)C(=O)[C@H](Cc2ccccc2)NC1=O [Seglitide]	loss of total cells	[1]; 11.11 µM	-10.3%
same	synaptosome phagocytosis	[2]; 5.56 µM	97.4%
